Assay results published in the supplement of paper PMC12889115.
The list shows a part of the results. Values are raw readings; no control value is given beside them.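 In the initial screen, polymyxin B was used at a concentration that permeabilizes Salmonella's outer membrane but not its inner membrane. Maximum growth was set by DMSO wells with or without polymyxin B. Since plates varied, data were ranked per plate, and compounds giving the lowest OD600 advanced as hits.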

Test system: Salmonella enterica serovar Typhimurium SL1344
Test: bacterial growth OD600 after 18 h with compound and polymyxin B; higher = more bacterial growth (less inhibition)
Details: 50 µM, Mueller-Hinton broth

Row | Structure (SMILES) | bacterial growth OD600 (polymyxin B 0.75 µg/mL) | bacterial growth OD600 (polymyxin B 1 µg/mL)
1 | Cc1c(C(=O)NC(c2ccccc2)c2ccco2)sc2ncnc(NCCc3ccccn3)c12 (stereo unspecified) | 0.726 | 
2 | COc1cc(Cl)c(CN2Cc3ccccc3OC(C)C2)cc1OC (stereo unspecified) | 0.696 | 
3 | CC(Cc1cc(C(=O)N2CCC(O)(c3cccc(C(F)(F)F)c3)CC2)on1)c1ccccc1 (stereo unspecified) | 0.682 | 
4 | COc1ccc(-c2nn(-c3ccccc3C)cc2CN(CC2CCC(=O)N2)C(C)C)cc1F (stereo unspecified) |  | 0.006
5 | CCN(CC)C(=O)Cn1cc(C(=O)N2CCN(c3nc4ccccc4s3)CC2)nn1 |  | 0.851
6 | COc1ccc(-n2cc(CN3CCC(OC)CC3)c(-c3cccc(F)c3)n2)cc1 |  | 0.71
7 | COc1ccc(Cl)cc1NC(=O)CCC1CCCN(C(=O)c2cc(C)[nH]n2)C1 (stereo unspecified) |  | 0.881
8 | O=C(CCc1nc(-c2ccccc2)no1)NC1CCCN(CCc2ccccc2)C1 (stereo unspecified) |  | 1.02
9 | O=C(c1cc(COc2cccc(C(F)(F)F)c2)[nH]n1)N1CCCC1 |  | 0.891
10 | CCCNC(=O)NC1CC(=O)N(Cc2cccc3ccccc23)C1 (stereo unspecified) |  | 1
11 | CC1CN(Cc2cccc3c2OCO3)Cc2cc(Cl)ccc2O1 (stereo unspecified) | 0.158 | 
12 | COCCCNc1nncc(-c2ccc(OC)cc2OC)n1 | 0.83 | 
13 | COCCn1cnc2cc(NC(=O)C3CCCCC3)cc(C(=O)NCCc3ccccc3OC)c21 | 0.784 | 
14 | O=C(NCCC1=CCCCC1)C1CC12CCN(C(=O)CCc1cccnc1)CC2 (stereo unspecified) | 0.817 | 
15 | COC(=O)c1cc(CNC(=O)CSc2ccccn2)cc(NC(=O)c2cccc(OC)c2)c1 | 0.588 | 
16 | Cc1ccc(OCc2cc(C(=O)N3CCN(C4CCCCC4)CC3)no2)cc1C |  | 0.575

Entries listed so far with an NH in an aromatic ring, in the order listed:
Row | Structure (SMILES) | bacterial growth OD600 (polymyxin B 0.75 µg/mL) | bacterial growth OD600 (polymyxin B 1 µg/mL)
7 | COc1ccc(Cl)cc1NC(=O)CCC1CCCN(C(=O)c2cc(C)[nH]n2)C1 (stereo unspecified) |  | 0.881
9 | O=C(c1cc(COc2cccc(C(F)(F)F)c2)[nH]n1)N1CCCC1 |  | 0.891

Continuation.

Row | Structure (SMILES) | bacterial growth OD600 (polymyxin B 0.75 µg/mL) | bacterial growth OD600 (polymyxin B 1 µg/mL)
17 | OCCC1CN(Cc2ccc3c(c2)OCCO3)CCN1CC1CCCCC1 (stereo unspecified) |  | 0.889
18 | COc1ccc(OC)c(-c2cc(Cl)c3c(c2)CC(CNC(=O)[C@H](CC(C)C)NC(C)=O)O3)c1 (stereo partly specified) | 0.772 | 
19 | CCN(CC1CCCN(CCc2cccc(OC)c2)C1)C(=O)C1=C(C)OCCO1 (stereo unspecified) |  | 1.06
20 | CSCCNC(=O)c1coc(COc2ccc(F)cc2)n1 |  | 0.855
21 | CCOC(=O)C1(Cc2cccc(OC)c2)CCN(Cc2ccc(OC)c(OC)c2)CC1 |  | 0.78
22 | CC1(C)CC(NC2CCN(c3ccc(C(=O)NCc4ccc5c(c4)OCO5)cc3)CC2)CCO1 (stereo unspecified) | 0.822 | 
23 | O=C(c1ccccc1OC1CCN(Cc2ccc(Cl)s2)CC1)N1CCCCC1 |  | 0.009
24 | CCOC(=O)N1CCC(N2CCCC(Nc3ccc(C)c(C)c3)C2)CC1 (stereo unspecified) |  | 0.889
25 | Cc1ccccc1N1C(=O)CN(C(=O)CCc2nc3ccccc3s2)CC1C (stereo unspecified) | 0.799 | 
26 | CC(C)c1nc(C(=O)N2CCC3(CCCN(CC4CC4)C3)C2)cs1 (stereo unspecified) |  | 1.15
27 | CCOc1cc(CN2CCC(n3nccc3NC(=O)C(C)(C)C)CC2)ccc1OC |  | 0.948
28 | O=C(CCC1CCCN(C(=O)Cn2cnc3ccccc32)C1)NCc1ccccc1F (stereo unspecified) |  | 1.14
29 | C#CCN(CC=C)Cc1nc(-c2cc(OC)ccc2OC)oc1C |  | 0.798
30 | COc1cc2nc(-c3cc4c(c(OC)c3)OCCN(C(=O)CC3CCCC3)C4)cc(C)c2cc1OC | 0.971 | 
31 | CCCN1CCC(CC(=O)N2CCCC(N3CCN(c4ccc(F)cc4)CC3)C2)CC1 (stereo unspecified) |  | 0.914
